Experimental findings from article doi:10.1101/2025.09.02.673761 (bioRxiv, 2025) are described below.

Sequences of proteins named here, by UniProt entry; tags and fusion partners are left off. A change or cut given only in a name is not applied to a line headed by its entry.
UniProt Q9NQS7: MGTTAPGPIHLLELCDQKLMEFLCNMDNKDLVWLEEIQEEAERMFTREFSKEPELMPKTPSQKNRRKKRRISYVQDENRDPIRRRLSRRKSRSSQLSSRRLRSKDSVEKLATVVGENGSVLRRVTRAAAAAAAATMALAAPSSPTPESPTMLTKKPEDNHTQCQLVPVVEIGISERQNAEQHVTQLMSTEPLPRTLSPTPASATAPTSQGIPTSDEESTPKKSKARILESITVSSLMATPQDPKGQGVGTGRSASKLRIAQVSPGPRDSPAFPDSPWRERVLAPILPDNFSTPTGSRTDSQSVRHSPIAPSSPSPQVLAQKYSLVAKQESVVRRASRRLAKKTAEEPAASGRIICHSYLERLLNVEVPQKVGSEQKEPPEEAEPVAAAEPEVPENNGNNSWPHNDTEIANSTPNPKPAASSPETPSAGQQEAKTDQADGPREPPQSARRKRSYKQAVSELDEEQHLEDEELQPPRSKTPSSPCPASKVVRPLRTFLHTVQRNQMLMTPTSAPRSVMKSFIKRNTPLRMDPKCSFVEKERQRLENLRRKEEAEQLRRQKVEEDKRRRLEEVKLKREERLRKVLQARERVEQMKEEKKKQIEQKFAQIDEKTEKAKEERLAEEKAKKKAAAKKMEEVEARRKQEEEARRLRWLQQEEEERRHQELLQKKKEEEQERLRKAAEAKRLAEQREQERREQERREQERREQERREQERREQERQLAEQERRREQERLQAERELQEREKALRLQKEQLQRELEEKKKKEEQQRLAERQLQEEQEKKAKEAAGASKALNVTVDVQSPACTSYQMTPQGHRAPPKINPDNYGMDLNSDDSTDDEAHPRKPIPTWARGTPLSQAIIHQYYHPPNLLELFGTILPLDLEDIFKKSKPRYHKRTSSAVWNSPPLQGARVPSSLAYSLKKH
UniProt Q96GD4: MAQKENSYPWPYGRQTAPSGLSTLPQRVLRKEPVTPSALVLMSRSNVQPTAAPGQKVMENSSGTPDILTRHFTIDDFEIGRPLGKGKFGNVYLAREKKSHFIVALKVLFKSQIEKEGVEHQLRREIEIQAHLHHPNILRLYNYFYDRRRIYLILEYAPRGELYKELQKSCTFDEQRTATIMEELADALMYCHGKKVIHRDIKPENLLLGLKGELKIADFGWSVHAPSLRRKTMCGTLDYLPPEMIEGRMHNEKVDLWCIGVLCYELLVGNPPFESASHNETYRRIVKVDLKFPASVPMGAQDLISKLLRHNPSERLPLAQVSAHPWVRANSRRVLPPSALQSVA
UniProt Q53HL2: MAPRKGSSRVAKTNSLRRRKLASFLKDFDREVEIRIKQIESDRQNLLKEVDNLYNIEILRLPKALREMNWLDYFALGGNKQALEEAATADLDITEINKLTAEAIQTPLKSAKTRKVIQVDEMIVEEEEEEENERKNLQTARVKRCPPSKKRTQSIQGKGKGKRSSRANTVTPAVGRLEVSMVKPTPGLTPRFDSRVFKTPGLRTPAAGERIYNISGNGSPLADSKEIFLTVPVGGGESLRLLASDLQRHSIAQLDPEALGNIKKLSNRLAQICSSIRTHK
UniProt O15392: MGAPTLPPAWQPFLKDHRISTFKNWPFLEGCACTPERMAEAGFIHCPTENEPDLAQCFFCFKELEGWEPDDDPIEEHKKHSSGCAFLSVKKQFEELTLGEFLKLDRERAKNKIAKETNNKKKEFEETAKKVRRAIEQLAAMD

The target in this experiment is T1, KIF4A (kinesin), unlabeled (human) (UniProt O95239).
T1 sequence: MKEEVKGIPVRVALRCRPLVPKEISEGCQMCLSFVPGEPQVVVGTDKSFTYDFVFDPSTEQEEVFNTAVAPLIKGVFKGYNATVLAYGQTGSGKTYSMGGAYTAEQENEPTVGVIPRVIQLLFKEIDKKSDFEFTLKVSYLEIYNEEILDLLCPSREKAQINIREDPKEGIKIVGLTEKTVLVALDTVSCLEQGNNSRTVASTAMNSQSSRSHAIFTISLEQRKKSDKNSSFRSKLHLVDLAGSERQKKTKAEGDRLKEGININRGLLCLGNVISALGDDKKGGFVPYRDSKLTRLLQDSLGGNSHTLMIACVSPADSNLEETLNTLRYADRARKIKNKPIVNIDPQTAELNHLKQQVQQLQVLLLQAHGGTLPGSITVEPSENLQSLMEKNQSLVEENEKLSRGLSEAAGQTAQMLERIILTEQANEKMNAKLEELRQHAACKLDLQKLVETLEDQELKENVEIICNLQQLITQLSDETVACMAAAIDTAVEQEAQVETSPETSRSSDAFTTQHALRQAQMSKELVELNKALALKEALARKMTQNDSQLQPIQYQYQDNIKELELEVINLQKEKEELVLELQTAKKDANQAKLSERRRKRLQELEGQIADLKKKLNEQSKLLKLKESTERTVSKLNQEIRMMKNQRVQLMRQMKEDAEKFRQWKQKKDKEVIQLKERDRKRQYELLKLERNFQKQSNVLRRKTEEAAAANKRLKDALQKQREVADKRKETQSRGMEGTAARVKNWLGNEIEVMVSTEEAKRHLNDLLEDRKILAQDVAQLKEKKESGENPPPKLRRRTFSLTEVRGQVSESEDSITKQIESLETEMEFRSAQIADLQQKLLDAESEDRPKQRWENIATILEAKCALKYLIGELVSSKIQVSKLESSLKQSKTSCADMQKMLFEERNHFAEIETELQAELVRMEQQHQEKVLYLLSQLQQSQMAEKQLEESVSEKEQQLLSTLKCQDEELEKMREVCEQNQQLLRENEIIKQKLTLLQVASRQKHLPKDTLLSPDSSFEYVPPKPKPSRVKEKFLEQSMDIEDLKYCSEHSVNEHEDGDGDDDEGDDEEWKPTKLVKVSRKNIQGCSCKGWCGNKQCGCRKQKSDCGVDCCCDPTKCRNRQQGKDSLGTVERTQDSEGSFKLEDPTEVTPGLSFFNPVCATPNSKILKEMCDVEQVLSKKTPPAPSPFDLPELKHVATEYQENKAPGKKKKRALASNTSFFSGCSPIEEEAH
The experiment is described as follows: TIRF microscopy, time-lapse of transport along microtubules.

These are yes or no findings as the source states them, for the method shown. Some entries that bind do so weakly or less than the wild type.

As for “JFX646-conjugated Halo-CPC (INCENP, Aurora B, Borealin-Halo, Survivin) (from UniProt Q9NQS7;Q96GD4;Q53HL2;O15392) (complex)”, the binding result is reported as “binds”.
